From patent US20100105567A1, “NOVEL CAPTURE AGENTS FOR BINDING A LIGAND” (priority 2005, published 2010)
The name of at least one read-out is uncertain.

Experiment: Retention of arrayed peptides on a polypropylene sheet after successive washes
Format: physicochemical
Conditions: Test array versus control array
Method: Further experiments were undertaken to investigate the retention of peptides P1-1 to P1-5 and P2-1 to P2-2, shown in Table 3, on a polypropylene surface.
The polypropylene sheet was wiped with 50% (v/v) aqueous acetonitrile prior to use.
8×replicate 20 nl volumes of 1 μM peptides P1-1 to P1-5 and P2-1 to P2-2 and TAMRA in dimethyl sulphoxide (DMSO) were dispensed at 1 mm spacing to a 3″×1″×1 mm polypropylene sheet using the Piezorray system (PerkinElmer LAS). 500 drops were pre-dispensed using the ‘side shoot’ option and the tuning was set to 72V for 30 μs.
The slide was imaged at 10 μm resolution on a Typhoon Trio Plus variable mode imager (Amersham Biosciences) with the green (532 nm) laser and the 580 BP 30 filter at a PMT voltage of 600 V and at normal sensitivity. The scan height was set at the platen and the samples were pressed during scanning. The fluorescence image was analysed using ImageQuant TL v2003.03 (Amersham Biosciences).
The lower half of the slide (containing the test array) was then washed in 100 ml of 1 M NaCl containing 10 mM tris-HCl (pH 8.0) for one minute and were re-scanned as described above.
The same half of the slide was then washed for a second time in 100 ml of 1 M NaCl containing 10 mM tris-HCl (pH 8.0) for 30 minutes and re-scanned as described above.
The same half of the slide was then washed for a third time in 100 ml of water for 30 minutes and re-scanned as described above.

Substance “TAMRA-F-G-F-G-F-G-F-G-F-G-F-S-F-A-F-D-F-G-F (FGFGFGFGFGFSFAFDFGF; N-terminal TAMRA) [Peptide P1-5]” has a Percentage recovery (after first wash) of 90%, a Percentage recovery (after second wash) of 66% and a Percentage recovery (after third wash) of 47%.

“TAMRA-F-G-F-G-F-G-F-G-F-S-F-A-F-D-F-G-F (FGFGFGFGFSFAFDFGF; N-terminal TAMRA) [Peptide P1-4]” gave a Percentage recovery (after first wash) of 87%, a Percentage recovery (after second wash) of 62% and a Percentage recovery (after third wash) of 27%.

In the case of “TAMRA-F-G-F-G-F-G-F-S-F-A-F-D-F-G-F (FGFGFGFSFAFDFGF; N-terminal TAMRA) [Peptide P1-3]”, the Percentage recovery (after first wash) was 36%, the Percentage recovery (after second wash) was 33% and the Percentage recovery (after third wash) was 3%.

With “TAMRA-F-G-F-G-F-S-F-A-F-D-F-G-F (FGFGFSFAFDFGF; N-terminal TAMRA) [Peptide P1-2]” the Percentage recovery (after first wash) was 29%, the Percentage recovery (after second wash) was 6% and the Percentage recovery (after third wash) was 4%.

Work on “TAMRA-F-G-F-S-F-A-F-D-F-G-F (FGFSFAFDFGF; N-terminal TAMRA) [Peptide P1-1]” yielded a Percentage recovery (after first wash) of 3% and a Percentage recovery (after third wash) of 1%.
